Assay [1] deals with T1, NLS-RFP-AKR2A (three tandem copies of the SV-40 large T antigen NLS fused to RFP and Arabidopsis AKR2A) (Arabidopsis) (UniProt Q9SAR5).
T1 sequence: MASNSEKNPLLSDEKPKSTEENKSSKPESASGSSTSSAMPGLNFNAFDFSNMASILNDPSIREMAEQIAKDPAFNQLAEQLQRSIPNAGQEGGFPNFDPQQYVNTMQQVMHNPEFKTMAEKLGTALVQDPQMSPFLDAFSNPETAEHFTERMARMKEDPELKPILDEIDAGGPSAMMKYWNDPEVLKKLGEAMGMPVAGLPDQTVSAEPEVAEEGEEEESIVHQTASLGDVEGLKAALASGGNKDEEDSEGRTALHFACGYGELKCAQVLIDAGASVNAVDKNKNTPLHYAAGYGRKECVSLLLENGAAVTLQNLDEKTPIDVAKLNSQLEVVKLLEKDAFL
Kind of assay: nuclear mislocalization assay.

Assay [2] has as its target T1, NLS-RFP-AKR2A (three tandem copies of the SV-40 large T antigen NLS fused to RFP and Arabidopsis AKR2A) (Arabidopsis). Kind of assay: nuclear mislocalization assay; co-expression in tobacco BY-2 cells (biolistic bombardment, 500 ng of the plasmid for the GFP fusion protein); relocation of the partner to the nucleus by NLS-RFP-AKR2A, against NLS-RFP alone, seen by epi-(immuno)fluorescence microscopy.

Results are given in words; binding and its absence hold for the method and conditions named. Tags and fused reporters may be left off the sequences shown.

For “myc-Cb5-HA (myc-Cb5 with the hemagglutinin epitope tag added to its C terminus) (tung tree (Aleurites fordii))”, the binding result in assay [1] was “no binding”.

As to “myc-Cb5 (myc-tagged mitochondrial isoform of tung tree cytochrome b5)”, the binding result in assay [2] is given as “no binding”.

With “myc-OEP9ΔCTS (N-terminal myc-tagged OEP9 with its hydrophilic C-terminal sequence deleted) (Arabidopsis) (domain or fragment)”, the binding result in assay [2] is recorded as “no binding”.

These data come from paper PMC2854689.
